Tests used:
[1] = system: VSV-SARS2; assay type: cell-based; details: read-out: IC50 against VSV-SARS2
[2] = system: SARS-CoV-2 expressing the mNeon reporter gene; assay type: cell-based; details: read-out: IC50 against SARS-CoV-2

Compound `Cc1ccc(NC(=O)c2ccc(CN3CCN(C)CC3)cc2)cc1Nc1nccc(-c2cccnc2)n1` [Imatinib] has an IC50 [1] of 6.9 µM and an IC50 [2] of 12.8 µM.

Source: publication PMC8315004, “Discovery of Small-Molecule Inhibitors of SARS-CoV-2 Proteins Using a Computational and Experimental Pipeline” (Frontiers in Molecular Biosciences, 2021)
